Measurements from “University of Dundee, Small-Polar-MMV Screening Library” (2021), ChEMBL document CHEMBL3988442.

Mtb growth Cornell: 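Whole-cell assay for inhibitors of Mycobacterium tuberculosis growth, labelled Cornell in the record; the read-out is not stated. The concentration is filed as 10 mM, unlikely as a test dose, so the dose is not known. Higher means stronger inhibition (inferred from two other growth screens of the library). About 53,000 compounds were tested under these conditions; 1.7% (about 900) showed 50% or more at least once.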
Mtb heat-shock: 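Assay on Mycobacterium tuberculosis, filed only as a heat shock assay from Cornell; the read-out is not stated. The concentration is filed as 10 mM, unlikely as a test dose, so the dose is not known. The record gives no direction; compounds that gave an IC50 in retests scored well above the rest, so higher reads as stronger inhibition. Of about 69,000 compounds tested this way, about 930 (1.4%) reached 50% or more in at least one test.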

Results are given as percent effect.
How 0% and 100% were set is not recorded. Most values in the screen are low, and negative values occur.
The compounds are a random part of those screened.

CC(C)C(C)n1nccc1NC(=O)Cn1cnc2ccccc21 (stereo not given) gave Mtb growth Cornell: 36.61%; Mtb heat-shock: -1.85%.
CC(=O)N1CCCC(C(=O)N2CCN(Cc3cc(C)on3)CC2)C1 (stereo not given) gave Mtb growth Cornell: -10.92%; Mtb heat-shock: -8.699%.
O=C(O)C(F)(F)F.O=C(O)C(F)(F)F.[H][C@@]12CO[C@@H](CN(C)C)[C@]1([H])CCN(Cc1ccc(C)o1)C2 gave Mtb growth Cornell: -0.1981%; Mtb heat-shock: -4.747%.
NC(=O)C1CCN(C(=O)c2cc(Br)ccc2-n2cnnn2)CC1 gave Mtb growth Cornell: -15.1%; Mtb heat-shock: -0.2318%.
CC(C)CN1CCC2(CCN(Cc3ccc(F)cc3)CC2)C1=O.O=C(O)C(F)(F)F gave Mtb growth Cornell: 5.444%; Mtb heat-shock: 1.12%.
COCc1noc(C2(c3ccc(F)cc3)CCOCC2)n1 gave Mtb heat-shock: -26.34%.
CS(=O)(=O)NC1CCCN(Cc2ccc(OCc3ccccn3)cc2)C1 (stereo not given) gave Mtb growth Cornell: 1.731%; Mtb heat-shock: 7.229%.
CN(C(=O)NCc1nccn1Cc1ccccc1)C1CC1 gave Mtb heat-shock: -34.67%.
Cc1ccc(Cl)cc1N1CCC(CNC(=O)CC(F)(F)F)C1 (stereo not given) gave Mtb growth Cornell: 7.121%; Mtb heat-shock: 28.09%.
O=C(O)C(F)(F)F.[H][C@@]12CN(C(=O)c3cccn3C)C[C@]1([H])C(=O)N(Cc1csc(C)n1)C2 gave Mtb growth Cornell: 1.374%; Mtb heat-shock: -10.46%.
O=C1OC2(CCN(C(=O)C3NCCc4[nH]cnc43)CC2)c2ccccc21 (stereo not given) gave Mtb growth Cornell: -15.35%; Mtb heat-shock: 26.76%.
O=C(O)C(F)(F)F.[H][C@@]12CCN(CC3CC3)[C@@]1([H])CCN2C(=O)c1cccc(Cl)c1 gave Mtb growth Cornell: 17.07%; Mtb heat-shock: 11.7%.
[H][C@@]12CN(C(C)C)C[C@]1([H])OCC(=O)N2Cc1ccccc1 gave Mtb growth Cornell: 1.599%; Mtb heat-shock: -25.37%.
CO[C@H]1CN(c2ccccc2)S(=O)(=O)[C@@]12CCN(Cc1ccccc1)C2 gave Mtb growth Cornell: 6.335%; Mtb heat-shock: -11.12%.
COC1CCN(C(=O)Cn2ncc(N3CCCCC3)cc2=O)C1 (stereo not given) gave Mtb growth Cornell: -46.22%; Mtb heat-shock: -1.914%.
CC(=O)N1N=C(COc2ccc3c(c2)OCO3)OC1c1cccc(Cl)c1 (stereo not given) gave Mtb growth Cornell: 10.27%; Mtb heat-shock: -7.862%.
CCN1C(=O)CCCC12CCCN(C(=O)c1sccc1C)C2 (stereo not given) gave Mtb growth Cornell: 35.63%; Mtb heat-shock: -7.268%.
c1cc(CNCc2ccnc(N3CCCC3)c2)c2c(c1)OCO2 gave Mtb growth Cornell: 7.24%; Mtb heat-shock: -1.814%.
CCOC(=O)N(C)C1CCN(Cc2csc(C)n2)CC1 gave Mtb growth Cornell: -17.98%; Mtb heat-shock: -8.902%.
FC1(F)CCN(Cc2ccncc2)CC12CCN(c1cccnc1)C2.O=C(O)C(F)(F)F.O=C(O)C(F)(F)F.O=C(O)C(F)(F)F (stereo not given) gave Mtb growth Cornell: 6.416%; Mtb heat-shock: -5.593%.
CCC[C@@H]1CN(c2cncc(C(=O)N3CCOCC3)n2)C[C@H]1N(C)C gave Mtb heat-shock: -8.353%.
COCC(=O)N1CCN(C(C)=O)C[C@@H]1C(=O)OC gave Mtb growth Cornell: -23.47%; Mtb heat-shock: -28.79%.
N#Cc1ncn(CCS(=O)(=O)c2ccc(Cl)cc2)n1 gave Mtb growth Cornell: -29.79%; Mtb heat-shock: 1.663%.
CC(C)C(Sc1nncn1C1CC1)C(=O)NCc1cccnc1 (stereo not given) gave Mtb growth Cornell: 2.917%; Mtb heat-shock: -12.1%.
CCC(C)S(=O)(=O)N1CCc2nc(C3CCNCC3)ncc2C1.Cl (stereo not given) gave Mtb growth Cornell: -0.09694%; Mtb heat-shock: -3.075%.

2 of the entries, repeated:

| Compound | Mtb growth Cornell | Mtb heat-shock |
|---|---|---|
| `CC(C)CN1CCC2(CCN(Cc3ccc(F)cc3)CC2)C1=O.O=C(O)C(F)(F)F` | 5.444 | 1.12 |
| `CC(C)C(C)n1nccc1NC(=O)Cn1cnc2ccccc21` (stereo not given) | 36.61 | -1.85 |